Source: ChEMBL document CHEMBL3988442, “University of Dundee, Small-Polar-MMV Screening Library” (2021).

The chains behind the UniProt entries cited, without tags or fusion partners.
UniProt E9BF75, entry or part of it: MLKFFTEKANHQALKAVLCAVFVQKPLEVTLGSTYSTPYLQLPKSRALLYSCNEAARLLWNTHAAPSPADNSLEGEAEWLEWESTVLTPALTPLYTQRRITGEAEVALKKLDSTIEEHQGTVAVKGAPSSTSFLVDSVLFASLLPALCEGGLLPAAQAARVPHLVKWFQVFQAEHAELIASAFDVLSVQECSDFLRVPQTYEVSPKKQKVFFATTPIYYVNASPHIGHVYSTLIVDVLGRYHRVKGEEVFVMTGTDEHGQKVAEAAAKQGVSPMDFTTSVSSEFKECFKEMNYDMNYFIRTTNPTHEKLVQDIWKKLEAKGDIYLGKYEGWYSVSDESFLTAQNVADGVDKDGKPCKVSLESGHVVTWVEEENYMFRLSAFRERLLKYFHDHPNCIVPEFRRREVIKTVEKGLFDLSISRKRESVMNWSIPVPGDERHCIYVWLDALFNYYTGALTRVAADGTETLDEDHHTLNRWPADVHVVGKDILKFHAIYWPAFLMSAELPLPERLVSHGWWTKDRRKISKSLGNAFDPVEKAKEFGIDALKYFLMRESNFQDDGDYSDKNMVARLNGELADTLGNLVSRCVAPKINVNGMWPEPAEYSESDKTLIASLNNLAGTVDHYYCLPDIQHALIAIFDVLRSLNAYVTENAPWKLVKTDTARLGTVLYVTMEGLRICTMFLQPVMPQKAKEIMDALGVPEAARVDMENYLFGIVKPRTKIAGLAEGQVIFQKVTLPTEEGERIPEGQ

Results are percentages, as filed.
How 0% and 100% were set is not recorded. Most values in the screen are low, and negative values occur.
Compounds were drawn at random from those tested, without regard to their results.

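Methionyl-tRNA synthetase (putative), Leishmania donovani (UniProt E9BF75). Primary screen of methionyl-tRNA synthetase; the read-out is not stated. The test concentration is not given. Values are per cent inhibition. Of about 68,000 compounds tested this way, about 24 (0.035%) reached 50% or more in at least one test.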

Result for COc1ccccc1OCc1cc(C(=O)NC[C@@H]2CCCN2)n[nH]1 was 12.36%.
Result for Cc1nnc(N2CCCC3(CN(c4cccc(F)c4)CCO3)C2)o1 (stereo not given) was 8.511%.
Result for Cn1c(=O)oc2ccc(NC(=O)N3CCc4ccccc4C3)cc21 was 12.41%.
Result for O=C(O)c1cc(/C=C/c2ccc3ccccc3c2)ncn1 was 3.183%.
Result for CCCNC(=O)C(C)Nc1cccc(Oc2ccc(C#N)cn2)c1 (stereo not given) was -9.943%.
Result for Cc1ccc(C(=O)N2C[C@H]3CNC[C@H]3C2)cn1 was 1.667%.
Result for O=C(NC1CCCC1)[C@H]1CC[C@@H]2[C@@H](CCN2c2ncc(F)cn2)O1 was 8.143%.
Result for CC1CN(C)c2ccccc2CN1C(=O)c1ccncc1 (stereo not given) was 6.404%.
Result for CCn1cc2c(n1)C(COC)CN(Cc1ccccn1)C2 (stereo not given) was 2.146%.
Result for COc1cccc(C(=O)Nc2n[nH]c(C3CCCO3)n2)c1 (stereo not given) was 11.8%.
Result for CC(C)Sc1ccc(C(C)Nc2nc3c(cnn3C)c(=O)[nH]2)cc1 (stereo not given) was 16.88%.
Result for CC(C)N1CCN(C)CC1c1nnc2ccc(C(=O)N3CCCC3)cn12 (stereo not given) was 10.14%.
Result for COC(=O)N1CCCC(C(=O)Nc2nc(C)c(SC)s2)C1 (stereo not given) was 13.74%.
Result for NC(=O)c1ccccc1NC(=O)CCN1CCN(c2ccccc2)CC1 was 17%.
Result for O=C(c1cc2c(s1)CCC2)N1CCCCC1Cn1cccn1 (stereo not given) was 18.1%.
Result for CCOCCC(=O)Nc1cccc(Cl)c1C(N)=O was 13.84%.
Result for Cc1cc(CN(C)C(=O)c2cc(COc3ccccc3)[nH]n2)n[nH]1 was 14.8%.
Result for Cn1cnnc1S(=O)(=O)C1CCN(S(=O)(=O)c2ccc(Cl)s2)CC1 was 8.908%.
Result for O=C1CC[C@H]2CN(c3ncc(F)cn3)CC[C@H]2N1CCc1ccccc1 was 11.46%.
Result for O=C(N1CCCCC1)N1CCN(CC(O)c2ccc(F)cc2)CC1 (stereo not given) was 15.31%.
Result for Cc1ccc(OC(C)CNC(=O)c2c[nH]nn2)cc1 (stereo not given) was 4.348%.
Result for Cc1noc([C@H]2C[C@@H]3CCN(C(=O)N(C)C)C[C@H]3O2)n1 was 9.764%.
Result for C/C(NC(=O)c1ccccn1)=C1\C(=O)C[C@@H]2[C@H]1C2(C)C was 5.376%.
Result for CC(C)Nc1cccc(C(=O)NCC(O)c2ccc(F)cc2F)c1 (stereo not given) was 5.495%.
Result for CC(NS(=O)(=O)CCc1ccccn1)c1ccccc1Br (stereo not given) was 7.833%.
Result for CCOc1cccc(CNC(=O)N2CCC(Cc3cnn(C)c3)C2)c1 (stereo not given) was 16.84%.
Result for Cc1cccc(OCCNC(=O)C(C)S(=O)(=O)C2CCCC2)c1 (stereo not given) was 16.48%.
Result for Cc1cc(C)n2c(CNCCNc3ccccc3)cnc2n1 was 12.15%.
Result for COc1ccc(CN2CCO[C@H]3CN(C4CCCC4)CC[C@H]3C2=O)cc1 was 6.643%.
Result for CC(C)N1CCO[C@H]2CN(C(=O)c3ccoc3)C[C@H]21 was 18.45%.
Result for O=C(O)c1c(Cl)ncn1-c1cccc2ccccc12 was 14.02%.
Result for CN(C(=O)c1ccc(C2CCCO2)s1)C1CCS(=O)(=O)CC1 (stereo not given) was 1.423%.
Result for Cc1cc(-n2c(C)cn(CN(C)C3CCS(=O)(=O)C3)c2=O)no1 (stereo not given) was 11.86%.
Result for Cn1cccc1C(=O)NCc1cnc2n1CCN(c1ccccn1)C2 was 11.85%.